The values below come from article PMC6936093.

The chains behind the UniProt entries cited, without tags or fusion partners.
UniProt Q96DH6: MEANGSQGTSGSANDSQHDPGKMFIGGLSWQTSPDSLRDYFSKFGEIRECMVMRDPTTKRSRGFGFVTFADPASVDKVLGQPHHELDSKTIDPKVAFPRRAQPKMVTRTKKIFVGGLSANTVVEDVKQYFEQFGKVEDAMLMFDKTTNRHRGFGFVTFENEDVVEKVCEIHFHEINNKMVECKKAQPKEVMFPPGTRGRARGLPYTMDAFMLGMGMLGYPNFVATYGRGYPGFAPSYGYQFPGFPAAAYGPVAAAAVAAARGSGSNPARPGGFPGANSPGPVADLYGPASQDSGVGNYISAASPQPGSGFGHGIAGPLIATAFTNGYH

The assay has as its target Musashi2 (MSI2) (human (endogenous in SNU-398)) (UniProt Q96DH6). Kind of assay: co-IP; SNU-398 cells (sorted CD44v6+ and CD44v6-; with MSI2 shRNA1, Lv MSI2 or control virus) lysed in RIPA buffer with protease inhibitors; precipitated with anti-MSI2 antibody on Protein A/G PLUS-Agarose, immunoblotted for LFNG. For orientation: In western blotting, separated proteins are transferred to a membrane and probed.

These are yes or no findings as the source states them, for the method shown. In cells and extracts the contact can be indirect. Some binding calls cover weakened binding; strength is not graded here. Tags and fused reporters may be left off the sequences shown.

B1: Lunatic fringe (LFNG), LFNG O-fucosylpeptide 3-beta-N-acetylglucosaminyltransferase (enzyme, UniProt Q8NES3 1-379)
chain: MLKRCGRRLLLALAGALLACLLVLTADPPPPPLPAERGRRALRSLAGPAGAAPAPGLGAAAAAPGALVRDVHSLSEYFSLLTRARRDAGPPPGAAPRPADGHPRPLAEPLAPRDVFIAVKTTKKFHRARLDLLLETWISRHKEMTFIFTDGEDEALARHTGNVVITNCSAAHSRQALSCKMAVEYDRFIESGRKWFCHVDDDNYVNLRALLRLLASYPHTRDVYVGKPSLDRPIQAMERVSENKVRPVHFWFATGGAGFCISRGLALKMSPWASGGHFMNTAERIRLPDDCTIGYIVEALLGVPLIRSGLFHSHLENLQQVPTSELHEQVTLSYGMFENKRNAVHVKGPFSVEADPSRFRSIHCHLYPDTPWCPRTAIF
In the case of B1, the binding result is reported as “binds”.
